Experimental data taken from PMC10326024.
No constants are given. Whether binding was seen depends on the method and setting. For some of these results: In cells and extracts the contact can be indirect. Some results given as binding are weak or reduced against the parent protein; the word gives no strength. For some of these results: Tags and fused reporters may be left off the sequences shown. Values belong to the substance of their own block, whether it stands above or below them.

Chains of the proteins cited; added tags and fusions are not shown.
UniProt P24385: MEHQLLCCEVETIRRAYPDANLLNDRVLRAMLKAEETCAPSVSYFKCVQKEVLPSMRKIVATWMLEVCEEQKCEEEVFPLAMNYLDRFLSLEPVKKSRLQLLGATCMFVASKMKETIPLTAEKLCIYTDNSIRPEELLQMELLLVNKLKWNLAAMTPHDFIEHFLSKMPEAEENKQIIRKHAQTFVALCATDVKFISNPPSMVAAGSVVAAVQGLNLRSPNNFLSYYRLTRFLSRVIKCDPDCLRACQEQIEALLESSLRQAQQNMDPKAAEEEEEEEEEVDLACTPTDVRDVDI

Experiments:
[1] = target: T1, MG53 expressed from pcDNA4/TO/myc-HisB (human) (UniProt Q6ZMU5); experiment: co-IP; HEK293 cells, both proteins overexpressed; lysis buffer 30 mM HEPES pH 7.6, 100 mM NaCl, 0.5% Nonidet P-40
T1 sequence: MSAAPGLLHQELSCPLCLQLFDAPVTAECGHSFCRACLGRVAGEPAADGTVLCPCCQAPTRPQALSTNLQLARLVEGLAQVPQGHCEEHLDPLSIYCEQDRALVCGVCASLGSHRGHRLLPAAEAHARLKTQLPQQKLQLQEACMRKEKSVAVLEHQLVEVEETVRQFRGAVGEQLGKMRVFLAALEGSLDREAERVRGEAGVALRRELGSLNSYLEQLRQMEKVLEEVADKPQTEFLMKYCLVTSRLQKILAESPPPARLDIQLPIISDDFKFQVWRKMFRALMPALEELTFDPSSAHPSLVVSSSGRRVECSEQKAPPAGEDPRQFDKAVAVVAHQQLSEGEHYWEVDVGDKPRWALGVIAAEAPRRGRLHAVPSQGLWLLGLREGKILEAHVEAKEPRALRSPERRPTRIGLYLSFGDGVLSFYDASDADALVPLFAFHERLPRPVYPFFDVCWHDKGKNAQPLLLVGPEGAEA

[2] = target: T2, endogenous MG53 (human (endogenous in HCT116)) (UniProt Q6ZMU5); experiment: co-IP; HCT116 cells, both proteins endogenous; lysis buffer 30 mM HEPES pH 7.6, 100 mM NaCl, 0.5% Nonidet P-40
T2 sequence: T1 sequence

[3] = target: T3, MYC-tagged MG53 (TRIM72) (human) (UniProt Q6ZMU5); experiment: co-IP; AGS cells, MYC-tagged MG53 exogenously overexpressed, cyclin D1 endogenous; lysis buffer 30 mM HEPES pH 7.6, 100 mM NaCl, 0.5% Nonidet P-40
T3 sequence: T1 sequence

[4] = target: T4, recombinant human MG53 (rhMG53) (human) (UniProt Q6ZMU5); experiment: co-IP; in vitro co-IP of recombinant human MG53 and recombinant human cyclin D1; both purified
T4 sequence: T1 sequence

- binding [1]: binds
Substance: cyclin D1-FLAG (from UniProt P24385 1-295)

- binding [2]: binds
- binding [3]: binds
Substance: endogenous cyclin D1 (from UniProt P24385 1-295)

- binding [4]: binds
Substance: recombinant human cyclin D1 (rhCyclin D1) (from UniProt P24385 1-295)
